Data reported in article PMC4808023.
Results are given in words; binding and its absence hold for the method and conditions named. A result given as binding can be weak or reduced; the word gives no strength. For some assays here: Binding seen in cells or lysates may run through a third protein. Values belong to the substance of their own block, whether it stands above or below them.

Protein sequences, listed by entry. Tags and fused reporters are not part of them. Lines headed by an entry give the natural chain unless they say otherwise; changes in a name come on top. Chains listed by the source or under a name are the forms on record and can include a tag or linker. Residues count along the entry.
SET 76-277-DDK (Q01105, residues 89-290): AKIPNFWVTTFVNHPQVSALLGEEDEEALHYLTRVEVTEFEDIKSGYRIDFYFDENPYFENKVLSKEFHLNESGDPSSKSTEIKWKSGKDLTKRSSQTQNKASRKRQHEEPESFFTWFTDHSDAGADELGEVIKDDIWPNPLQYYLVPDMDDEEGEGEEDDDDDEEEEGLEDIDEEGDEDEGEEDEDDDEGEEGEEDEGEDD
recombinant truncated SET protein SET 1-177 (Q01105-2, form named): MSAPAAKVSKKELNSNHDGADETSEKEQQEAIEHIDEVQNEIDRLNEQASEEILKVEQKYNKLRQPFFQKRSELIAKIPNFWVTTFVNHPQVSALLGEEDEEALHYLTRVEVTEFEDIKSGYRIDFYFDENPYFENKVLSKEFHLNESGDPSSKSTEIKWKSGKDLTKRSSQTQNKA
recombinant truncated SET protein SET 1-227 (Q01105-2, form named): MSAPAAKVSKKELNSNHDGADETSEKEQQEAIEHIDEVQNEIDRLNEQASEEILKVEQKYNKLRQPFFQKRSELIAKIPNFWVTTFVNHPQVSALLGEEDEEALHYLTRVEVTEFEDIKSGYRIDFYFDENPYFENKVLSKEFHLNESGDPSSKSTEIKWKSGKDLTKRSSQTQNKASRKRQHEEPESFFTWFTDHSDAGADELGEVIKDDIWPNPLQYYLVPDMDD
recombinant truncated SET protein SET 1-127 (Q01105-2, form named): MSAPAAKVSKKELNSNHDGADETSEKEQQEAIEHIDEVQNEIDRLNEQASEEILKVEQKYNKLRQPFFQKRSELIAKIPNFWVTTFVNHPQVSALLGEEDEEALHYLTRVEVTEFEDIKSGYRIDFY
full-length SET-DDK (Q01105-2, form named): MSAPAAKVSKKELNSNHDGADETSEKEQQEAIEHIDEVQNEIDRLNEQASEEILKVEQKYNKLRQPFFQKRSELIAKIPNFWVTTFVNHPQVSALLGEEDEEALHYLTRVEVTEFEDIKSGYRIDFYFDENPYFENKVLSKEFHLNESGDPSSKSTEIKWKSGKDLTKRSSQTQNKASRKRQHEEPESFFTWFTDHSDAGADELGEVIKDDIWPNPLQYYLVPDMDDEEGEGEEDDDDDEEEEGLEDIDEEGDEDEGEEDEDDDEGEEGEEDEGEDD
UniProt P67775: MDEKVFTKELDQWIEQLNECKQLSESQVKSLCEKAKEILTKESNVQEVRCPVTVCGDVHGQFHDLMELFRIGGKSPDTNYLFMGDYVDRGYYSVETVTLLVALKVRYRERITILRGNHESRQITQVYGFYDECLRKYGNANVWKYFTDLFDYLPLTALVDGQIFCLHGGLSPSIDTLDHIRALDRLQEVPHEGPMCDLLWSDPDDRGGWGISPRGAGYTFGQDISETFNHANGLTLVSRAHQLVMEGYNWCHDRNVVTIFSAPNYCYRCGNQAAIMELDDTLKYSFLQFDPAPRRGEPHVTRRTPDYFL

Legend:
SET 1-177-DDK (human) = SET 1-177-DDK (human) (UniProt Q01105); test: co-IP; A549 cells transiently transfected with DDK-tagged full-length or truncated SET, with or without EMQA 5 uM; endogenous PP2Ac
SET 76-277-DDK (human) = SET 76-277-DDK (human) (UniProt Q01105); test: as above
SET 1-227-DDK (human) = SET 1-227-DDK (human) (UniProt Q01105); test: as above
SET 1-127-DDK (human) = SET 1-127-DDK (human) (UniProt Q01105); test: as above
[1] = molecular target: full-length SET-DDK (human) (UniProt Q01105); test: as above
[2] = molecular target: PP2Ac-GST recombinant protein (UniProt P67775); test: SPR; BIAcore T200; PP2Ac-GST held on a CM5 chip pre-coated with GST-capture antibodies; mixtures of full-length and truncated SET in the indicated proportions injected in a fixed dose of EMQA; both purified

Substance: PP2A-catalytic subunit (from UniProt P67775) (enzyme)
binding (SET 1-177-DDK (human)): binds
binding (SET 76-277-DDK (human)): binds
binding (SET 1-227-DDK (human)): binds
binding (SET 1-127-DDK (human)): binds
binding [1]: binds

binding [2]: binds
Substance: recombinant truncated SET protein SET 1-127 (from UniProt Q01105-2 1-127) (domain or fragment)

binding [2]: binds
Substance: recombinant truncated SET protein SET 1-177 (from UniProt Q01105-2 1-177) (domain or fragment)

binding [2]: binds
Substance: recombinant truncated SET protein SET 1-227 (from UniProt Q01105-2 1-227) (domain or fragment)
